The data set addresses RAD52 full length (human) (UniProt P43351). Nature of the data set: mass photometry. The settings on record: 100 nM protein, 10 nM DNA, large clusters form; mass photometry: 20 mM Tris-HCl, 50 mM NaCl, pH 7.5; recombinant protein; residues 1-418; protein details: His-tag (pET-15b); single-stranded DNA.

Chains of the proteins cited; added tags and fusions are not shown. Lines headed by an entry give the natural chain unless they say otherwise; changes in a name come on top.
UniProt P43351: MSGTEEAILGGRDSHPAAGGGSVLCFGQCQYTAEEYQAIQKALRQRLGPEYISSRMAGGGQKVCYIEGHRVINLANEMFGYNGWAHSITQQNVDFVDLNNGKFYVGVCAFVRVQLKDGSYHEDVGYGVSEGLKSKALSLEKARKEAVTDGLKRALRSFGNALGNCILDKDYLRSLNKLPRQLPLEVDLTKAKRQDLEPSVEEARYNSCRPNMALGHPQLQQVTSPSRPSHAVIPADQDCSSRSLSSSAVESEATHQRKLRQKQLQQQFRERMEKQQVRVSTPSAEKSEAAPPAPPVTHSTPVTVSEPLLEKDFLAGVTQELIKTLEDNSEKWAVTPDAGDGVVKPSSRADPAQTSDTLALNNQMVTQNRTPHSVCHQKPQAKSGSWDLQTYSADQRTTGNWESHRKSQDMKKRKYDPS

The exact form of at least one protein or probe is not confirmed. At least one verdict rests on a figure or table, not on a statement of the authors.

For the sequence “GCAATTAAGCTCTAAGCCATCCGCAAAAATGACCTCTTATCAAAAGGA [48 nt unlabeled]”, the binding result is “binds”.

These data come from article PMC12002259.
